# Experiment: Static thermostability of the stabilized resin, simplified method (GARDNER sub-scale in polyvinyl chloride sheets)
# Protocol: These studies were performed with five different formulae of vinyl resins (hereinafter referred to as Compounds).
# The different Compounds were mixed and calendered in a mixer of which the cylinders were heated to 160° C. The rigid sheets so obtained were then heated in an oven to a temperature between 180° C and 215° C, until incipient carbonization.
# A stove with rotating drums, ventilated and equipped with a thermostat was used for this operation. In the trials described hereunder, the behaviour of the sheets containing one of the stabilizers to be tested was compared to that of sheets of the same formulae but containing 2-phenylindole as stabilizer.
# (2) It is also possible to use a simplified method which is more rapid and with which valid results are also obtained: A reference scale is drawn up with sheets of thermally treated polyvinyl chloride, of which the colorations have been definitely determined in GARDNER degrees as above.
# A GARDNER sub-scale is thus obtained in polyvinyl chloride sheets which can be directly compared to the sheets to be tested without using the comparator.
Compound,"Coloration of sheet (Compound C, 210° C, 0 min)","Coloration of sheet (Compound C, 210° C, 10 min)","Coloration of sheet (Compound C, 210° C, 20 min)","Coloration of sheet (Compound C, 210° C, 30 min)","Coloration of sheet (Compound C, 210° C, 40 min)","Coloration of sheet (Compound C, 210° C, 50 min)","Coloration of sheet (Compound C, 210° C, 55 min)","Coloration of sheet (Compound C, 210° C, 60 min)","Coloration of sheet (Compound D, 185° C, 0 min)","Coloration of sheet (Compound D, 185° C, 10 min)","Coloration of sheet (Compound D, 185° C, 20 min)","Coloration of sheet (Compound D, 185° C, 30 min)","Coloration of sheet (Compound A, 210° C, 0 min)","Coloration of sheet (Compound A, 210° C, 3 min)","Coloration of sheet (Compound A, 210° C, 6 min)","Coloration of sheet (Compound A, 210° C, 9 min)","Coloration of sheet (Compound A, 210° C, 12 min)","Coloration of sheet (Compound A, 210° C, 15 min)","Burning of sheet along its edges (Compound A, 210° C, after 15 minutes)","Coloration of sheet (Compound A, 210° C, 18 min)"
"COc1cc(-c2cc3ccccc3[nH]2)ccc1O [Stabilizer 2, 2-(3'-methoxy-4'-hydroxy-phenyl)-indole]",< 1 GARDNER degrees,1 GARDNER degrees,1.5 GARDNER degrees,2 GARDNER degrees,2.5 GARDNER degrees,< 3 GARDNER degrees,3 GARDNER degrees,< 4 GARDNER degrees,< 1 GARDNER degrees,< 1 GARDNER degrees,1 GARDNER degrees,< 2 GARDNER degrees,–,–,–,–,–,–,–,–
"COc1cc(OC)cc(-c2cc3ccccc3[nH]2)c1 [Stabilizer 3, 2-(3',5'-dimethyoxy-phenyl)-indole]",–,–,–,–,–,–,–,–,–,–,–,–,1 GARDNER degrees,1 GARDNER degrees,2 GARDNER degrees,3 GARDNER degrees,8 GARDNER degrees,11 GARDNER degrees,the test sheet was not,–
"COc1ccc(-c2cc3ccccc3[nH]2)cc1O [Stabilizer 13, 2-(3'-hydroxy-4'-methoxy-phenyl)-indole]",–,–,–,–,–,–,–,–,–,–,–,–,1 GARDNER degrees,1 GARDNER degrees,1 GARDNER degrees,4 GARDNER degrees,7 GARDNER degrees,10 GARDNER degrees,–,Burnt
"CCCCCCCCCCCCc1cc(-c2cc3ccccc3[nH]2)ccc1OC [Stabilizer 14, 2-(3'-dodecyl-4'-methoxy-phenyl)-indole]",–,–,–,–,–,–,–,–,–,–,–,–,1 GARDNER degrees,1 GARDNER degrees,2 GARDNER degrees,5 GARDNER degrees,8 GARDNER degrees,10 GARDNER degrees,–,16 GARDNER degrees
"COc1ccc(-c2cc3ccccc3[nH]2)cc1C(C)C [Stabilizer 15, 2-(3'-isopropyl-4'-methoxy-phenyl)-indole]",–,–,–,–,–,–,–,–,–,–,–,–,1 GARDNER degrees,1 GARDNER degrees,2 GARDNER degrees,4 GARDNER degrees,11 GARDNER degrees,13 GARDNER degrees,–,Burnt
"COc1ccc(-c2cc3ccccc3[nH]2)cc1C1CCCCC1 [Stabilizer 16, 2-(3'-cyclohexyl-4'-methoxy-phenyl)-indole]",–,–,–,–,–,–,–,–,–,–,–,–,1 GARDNER degrees,1 GARDNER degrees,2 GARDNER degrees,3 GARDNER degrees,9 GARDNER degrees,13 GARDNER degrees,–,Burnt
"COc1c(C)cc(-c2cc3ccccc3[nH]2)cc1C [Stabilizer 17, 2-(3',5'-dimethyl-4'-methoxy-phenyl)-indole]",–,–,–,–,–,–,–,–,–,–,–,–,1 GARDNER degrees,1 GARDNER degrees,1 GARDNER degrees,3 GARDNER degrees,6 GARDNER degrees,8 GARDNER degrees,–,12 GARDNER degrees
"CCOc1c(C)cc(-c2cc3ccccc3[nH]2)cc1C [Stabilizer 18, 2-(3',5'-dimethyl-4'-ethoxy-phenyl)-indole]",–,–,–,–,–,–,–,–,–,–,–,–,1 GARDNER degrees,1 GARDNER degrees,2 GARDNER degrees,3 GARDNER degrees,10 GARDNER degrees,11 GARDNER degrees,–,13 GARDNER degrees
"CCCCCCCCCCCCc1cc(-c2cc3ccccc3[nH]2)ccc1O [Stabilizer 19, 2-(3'-dodecyl-4'-hydroxy-phenyl)-indole]",–,–,–,–,–,–,–,–,–,–,–,–,1 GARDNER degrees,1 GARDNER degrees,3 GARDNER degrees,6 GARDNER degrees,6 GARDNER degrees,11 GARDNER degrees,–,16 GARDNER degrees
"CC(C)c1cc(-c2cc3ccccc3[nH]2)ccc1O [Stabilizer 20, 2-(3'-isopropyl-4'-hydroxy-phenyl)-indole]",–,–,–,–,–,–,–,–,–,–,–,–,1 GARDNER degrees,1 GARDNER degrees,3 GARDNER degrees,6 GARDNER degrees,10 GARDNER degrees,11 GARDNER degrees,–,Burnt
"Oc1ccc(-c2cc3ccccc3[nH]2)cc1C1CCCCC1 [Stabilizer 21, 2-(3'-cyclohexyl-4'-hydroxy-phenyl)-indole]",–,–,–,–,–,–,–,–,–,–,–,–,1 GARDNER degrees,1 GARDNER degrees,2 GARDNER degrees,3 GARDNER degrees,8 GARDNER degrees,12 GARDNER degrees,–,14 GARDNER degrees
"CCOc1ccc(-c2cc3ccccc3[nH]2)cc1OC [Stabilizer 23, 2-(3'-methoxy-4'-ethoxy-phenyl)-indole]",–,–,–,–,–,–,–,–,–,–,–,–,1 GARDNER degrees,1 GARDNER degrees,2 GARDNER degrees,2 GARDNER degrees,3 GARDNER degrees,9 GARDNER degrees,–,Burnt
"CCCCCCCCCCCCOc1ccc(-c2cc3ccccc3[nH]2)cc1OC [Stabilizer 24, 2-(3'-methoxy-4'-dodecyloxy-phenyl)-indole]",–,–,–,–,–,–,–,–,–,–,–,–,1 GARDNER degrees,1 GARDNER degrees,1 GARDNER degrees,4 GARDNER degrees,10 GARDNER degrees,13 GARDNER degrees,–,Burnt
"CCCCOc1ccc(-c2cc3ccccc3[nH]2)cc1OC [Stabilizer 25, 2-(3'-methoxy-4'-butyloxy-phenyl)-indole]",–,–,–,–,–,–,–,–,–,–,–,–,1 GARDNER degrees,1 GARDNER degrees,2 GARDNER degrees,3 GARDNER degrees,9 GARDNER degrees,12 GARDNER degrees,–,Burnt
"CCCOc1ccc(-c2cc3ccccc3[nH]2)cc1OC [Stabilizer 26, 2-(3'-methoxy-4'-propyloxy-phenyl)-indole]",–,–,–,–,–,–,–,–,–,–,–,–,1 GARDNER degrees,1 GARDNER degrees,1 GARDNER degrees,2 GARDNER degrees,3 GARDNER degrees,4 GARDNER degrees,–,10 GARDNER degrees
"COc1cc(-c2cc3ccccc3[nH]2)ccc1OC(C)C [Stabilizer 27, 2-(3'-methoxy-4'-isopropyloxy-phenyl)-indole]",–,–,–,–,–,–,–,–,–,–,–,–,1 GARDNER degrees,1 GARDNER degrees,1 GARDNER degrees,3 GARDNER degrees,4 GARDNER degrees,9 GARDNER degrees,–,13 GARDNER degrees
"CCOc1ccc(-c2cc3ccccc3[nH]2)cc1OCC [Stabilizer 28, 2-(3'4'-diethoxy-phenyl)-indole]",–,–,–,–,–,–,–,–,–,–,–,–,1 GARDNER degrees,1 GARDNER degrees,2 GARDNER degrees,2 GARDNER degrees,10 GARDNER degrees,13 GARDNER degrees,–,Burnt
"COc1ccc(-c2cc3ccccc3[nH]2)cc1OCc1ccccc1 [Stabilizer 29, 2-(3'-benzyloxy-4'-methoxy-phenyl)indole]",–,–,–,–,–,–,–,–,–,–,–,–,1 GARDNER degrees,1 GARDNER degrees,1 GARDNER degrees,4 GARDNER degrees,10 GARDNER degrees,13 GARDNER degrees,–,Burnt
"CCCCCCCCCCCCOc1ccc(-c2cc3ccccc3[nH]2)cc1C [Stabilizer 30, 2-(3'-methyl-4'-dodecyloxy-phenyl)-indole]",–,–,–,–,–,–,–,–,–,–,–,–,1 GARDNER degrees,1 GARDNER degrees,3 GARDNER degrees,5 GARDNER degrees,6 GARDNER degrees,13 GARDNER degrees,–,Burnt
